No constants are given. Whether binding was seen depends on the method and setting. Binding seen in cells or lysates may run through a third protein. Some results given as binding are weak or reduced against the parent protein; the word gives no strength.
Biological target: DDB2-FLAG-HA (DNA-Damage Binding protein 2 fused to a FLAG-HA tag) (UniProt Q92466)
Assay: co-IP; FLAG-affinity purification of DDB2-FLAG-HA from cleared HeLa S3 lysate (40 mM Tris-HCl pH 8, 200 mM NaCl, 10% glycerol, 2 mM EDTA, 0.4% NP40) on M2 anti-FLAG agarose beads, 4 h at 4°C; eluted with excess FLAG peptide; partners detected by immuno-blotting

Amino acid sequences for entries named in this document (tags omitted).
UniProt Q92466: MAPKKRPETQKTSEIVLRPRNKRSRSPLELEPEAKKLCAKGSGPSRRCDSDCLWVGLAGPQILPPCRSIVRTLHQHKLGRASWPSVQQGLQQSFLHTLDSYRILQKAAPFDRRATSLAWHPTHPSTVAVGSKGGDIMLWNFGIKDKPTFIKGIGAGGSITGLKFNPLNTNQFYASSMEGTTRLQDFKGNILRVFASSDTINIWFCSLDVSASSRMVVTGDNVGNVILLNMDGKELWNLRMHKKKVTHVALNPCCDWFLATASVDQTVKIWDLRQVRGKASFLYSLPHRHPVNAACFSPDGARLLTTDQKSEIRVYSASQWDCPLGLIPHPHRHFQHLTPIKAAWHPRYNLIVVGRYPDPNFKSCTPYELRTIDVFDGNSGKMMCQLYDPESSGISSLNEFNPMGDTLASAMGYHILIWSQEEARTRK
UniProt Q13619: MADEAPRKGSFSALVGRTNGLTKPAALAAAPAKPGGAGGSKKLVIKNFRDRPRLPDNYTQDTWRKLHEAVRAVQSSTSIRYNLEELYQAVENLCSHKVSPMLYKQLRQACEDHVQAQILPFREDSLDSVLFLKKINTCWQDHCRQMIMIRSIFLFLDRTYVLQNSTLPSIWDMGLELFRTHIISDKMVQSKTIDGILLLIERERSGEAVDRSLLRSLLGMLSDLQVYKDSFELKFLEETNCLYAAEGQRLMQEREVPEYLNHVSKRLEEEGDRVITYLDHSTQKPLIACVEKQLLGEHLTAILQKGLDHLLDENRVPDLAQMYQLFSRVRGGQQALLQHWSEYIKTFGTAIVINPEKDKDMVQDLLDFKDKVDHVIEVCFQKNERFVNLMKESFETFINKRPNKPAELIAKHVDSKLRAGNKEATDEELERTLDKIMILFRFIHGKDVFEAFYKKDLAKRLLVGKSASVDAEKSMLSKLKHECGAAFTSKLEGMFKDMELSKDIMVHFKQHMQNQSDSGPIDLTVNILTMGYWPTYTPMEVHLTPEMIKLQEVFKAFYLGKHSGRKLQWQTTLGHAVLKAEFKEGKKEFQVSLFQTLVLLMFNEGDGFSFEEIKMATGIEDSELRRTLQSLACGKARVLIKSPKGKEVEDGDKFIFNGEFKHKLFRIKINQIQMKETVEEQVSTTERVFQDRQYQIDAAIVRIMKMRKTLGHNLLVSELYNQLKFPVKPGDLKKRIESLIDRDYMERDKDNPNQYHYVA
UniProt Q92905: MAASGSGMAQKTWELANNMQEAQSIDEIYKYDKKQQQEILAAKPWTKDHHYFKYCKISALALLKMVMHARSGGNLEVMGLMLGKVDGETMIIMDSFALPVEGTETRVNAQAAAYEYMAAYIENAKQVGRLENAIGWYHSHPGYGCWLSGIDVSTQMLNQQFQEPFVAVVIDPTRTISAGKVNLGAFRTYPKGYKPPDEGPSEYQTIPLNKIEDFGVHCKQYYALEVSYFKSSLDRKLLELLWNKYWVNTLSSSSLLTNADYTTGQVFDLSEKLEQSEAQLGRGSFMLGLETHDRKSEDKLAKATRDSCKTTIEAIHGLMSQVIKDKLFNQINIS
UniProt Q16531: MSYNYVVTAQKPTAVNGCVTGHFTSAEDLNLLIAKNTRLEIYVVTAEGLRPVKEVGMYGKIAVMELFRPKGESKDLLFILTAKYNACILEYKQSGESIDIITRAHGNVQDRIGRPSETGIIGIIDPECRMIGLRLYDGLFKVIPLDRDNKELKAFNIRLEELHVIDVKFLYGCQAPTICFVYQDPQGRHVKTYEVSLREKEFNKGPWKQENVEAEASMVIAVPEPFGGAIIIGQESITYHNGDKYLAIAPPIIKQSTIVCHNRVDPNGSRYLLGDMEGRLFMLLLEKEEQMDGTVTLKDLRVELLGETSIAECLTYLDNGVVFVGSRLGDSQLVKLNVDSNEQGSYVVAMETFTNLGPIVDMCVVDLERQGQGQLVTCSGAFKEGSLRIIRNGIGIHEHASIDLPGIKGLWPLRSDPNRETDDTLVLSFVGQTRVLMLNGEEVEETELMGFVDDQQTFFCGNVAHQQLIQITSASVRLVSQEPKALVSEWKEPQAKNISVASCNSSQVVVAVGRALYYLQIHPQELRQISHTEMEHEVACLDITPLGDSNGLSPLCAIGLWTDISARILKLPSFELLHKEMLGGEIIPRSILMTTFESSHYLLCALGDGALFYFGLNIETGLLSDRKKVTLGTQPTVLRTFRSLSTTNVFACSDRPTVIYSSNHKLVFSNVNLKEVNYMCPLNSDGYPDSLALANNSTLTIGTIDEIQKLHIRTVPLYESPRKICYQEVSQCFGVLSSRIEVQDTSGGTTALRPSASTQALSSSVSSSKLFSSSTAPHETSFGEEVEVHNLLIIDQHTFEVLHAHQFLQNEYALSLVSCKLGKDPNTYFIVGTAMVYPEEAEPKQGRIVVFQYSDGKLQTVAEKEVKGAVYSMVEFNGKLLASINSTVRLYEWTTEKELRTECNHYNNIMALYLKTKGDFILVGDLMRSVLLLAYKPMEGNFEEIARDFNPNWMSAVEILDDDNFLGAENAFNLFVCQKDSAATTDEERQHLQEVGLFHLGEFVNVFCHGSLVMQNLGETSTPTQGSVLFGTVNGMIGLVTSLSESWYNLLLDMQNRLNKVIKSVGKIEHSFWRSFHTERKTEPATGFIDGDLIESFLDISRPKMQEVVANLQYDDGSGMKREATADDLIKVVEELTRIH

| Substance | binding |
| --- | --- |
| Cullin4A (from UniProt Q13619 1-759) (other; other documents disagree on this pair) | binds |
| CSN5 (from UniProt Q92905 1-334) | binds |
| DDB1 (from UniProt Q16531 1-1140) | binds |
